Results as given in the supplement of paper PMC12595434, “Development of retinoid nuclear receptor pathway antagonists through targeting aldehyde dehydrogenase 1A3” (iScience, 2025).
The other results are listed elsewhere or left out. This is a noisy data set.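 Tm was set to 64 °C where no melting was found, and many curves are irregular.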

Chains of the proteins cited; added tags and fusions are not shown. Lines headed by an entry give the natural chain unless they say otherwise; changes in a name come on top.
UniProt P06493, whole entry, looked up: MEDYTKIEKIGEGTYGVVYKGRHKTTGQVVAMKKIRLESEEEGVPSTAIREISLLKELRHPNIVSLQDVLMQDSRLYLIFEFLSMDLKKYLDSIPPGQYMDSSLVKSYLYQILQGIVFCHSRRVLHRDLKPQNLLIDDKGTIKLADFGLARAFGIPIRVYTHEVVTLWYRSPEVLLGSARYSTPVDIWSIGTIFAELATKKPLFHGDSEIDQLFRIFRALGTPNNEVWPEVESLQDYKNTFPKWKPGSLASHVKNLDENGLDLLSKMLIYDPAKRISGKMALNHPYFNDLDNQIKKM
UniProt O95295: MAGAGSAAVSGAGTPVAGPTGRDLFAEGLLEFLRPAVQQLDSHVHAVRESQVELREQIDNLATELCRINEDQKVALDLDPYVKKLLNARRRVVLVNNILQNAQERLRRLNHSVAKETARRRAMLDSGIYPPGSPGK
UniProt O76024: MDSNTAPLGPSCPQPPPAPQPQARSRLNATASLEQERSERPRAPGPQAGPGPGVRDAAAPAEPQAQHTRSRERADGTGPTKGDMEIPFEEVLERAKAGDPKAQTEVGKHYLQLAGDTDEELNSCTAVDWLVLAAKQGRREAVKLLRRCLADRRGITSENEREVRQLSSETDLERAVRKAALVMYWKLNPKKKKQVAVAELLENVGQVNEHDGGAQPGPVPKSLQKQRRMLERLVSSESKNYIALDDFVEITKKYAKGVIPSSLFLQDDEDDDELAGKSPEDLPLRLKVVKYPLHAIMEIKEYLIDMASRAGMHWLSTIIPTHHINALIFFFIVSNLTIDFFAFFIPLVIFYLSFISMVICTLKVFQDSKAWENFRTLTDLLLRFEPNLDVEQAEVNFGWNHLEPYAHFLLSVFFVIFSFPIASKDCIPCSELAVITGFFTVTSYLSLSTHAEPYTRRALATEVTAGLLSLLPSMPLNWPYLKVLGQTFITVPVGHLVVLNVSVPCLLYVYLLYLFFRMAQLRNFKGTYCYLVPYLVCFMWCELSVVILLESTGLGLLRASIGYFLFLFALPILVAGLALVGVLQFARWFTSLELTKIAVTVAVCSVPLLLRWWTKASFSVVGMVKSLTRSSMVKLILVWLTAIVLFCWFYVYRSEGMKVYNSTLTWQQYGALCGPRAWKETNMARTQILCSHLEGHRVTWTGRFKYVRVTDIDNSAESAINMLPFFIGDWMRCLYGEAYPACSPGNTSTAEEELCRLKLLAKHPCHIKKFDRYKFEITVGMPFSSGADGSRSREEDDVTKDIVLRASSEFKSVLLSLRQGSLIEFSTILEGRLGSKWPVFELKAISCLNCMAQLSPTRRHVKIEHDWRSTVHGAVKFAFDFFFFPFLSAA
UniProt O75947: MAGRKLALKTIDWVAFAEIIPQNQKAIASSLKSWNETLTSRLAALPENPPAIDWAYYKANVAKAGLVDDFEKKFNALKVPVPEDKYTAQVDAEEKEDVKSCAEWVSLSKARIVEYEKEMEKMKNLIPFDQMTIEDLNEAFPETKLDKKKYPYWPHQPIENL
UniProt O95372: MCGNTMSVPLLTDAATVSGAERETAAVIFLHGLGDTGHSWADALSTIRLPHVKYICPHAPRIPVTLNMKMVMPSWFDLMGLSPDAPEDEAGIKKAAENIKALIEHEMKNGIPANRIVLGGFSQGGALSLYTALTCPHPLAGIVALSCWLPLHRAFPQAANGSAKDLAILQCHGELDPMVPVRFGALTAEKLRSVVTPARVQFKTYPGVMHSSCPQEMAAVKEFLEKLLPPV
UniProt O95721: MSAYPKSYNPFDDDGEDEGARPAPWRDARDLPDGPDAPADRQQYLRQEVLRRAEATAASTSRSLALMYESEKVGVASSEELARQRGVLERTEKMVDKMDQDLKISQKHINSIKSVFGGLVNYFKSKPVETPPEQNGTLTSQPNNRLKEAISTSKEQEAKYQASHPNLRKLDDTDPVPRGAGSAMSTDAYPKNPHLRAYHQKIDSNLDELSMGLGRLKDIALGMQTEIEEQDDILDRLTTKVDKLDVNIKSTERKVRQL
UniProt O94806: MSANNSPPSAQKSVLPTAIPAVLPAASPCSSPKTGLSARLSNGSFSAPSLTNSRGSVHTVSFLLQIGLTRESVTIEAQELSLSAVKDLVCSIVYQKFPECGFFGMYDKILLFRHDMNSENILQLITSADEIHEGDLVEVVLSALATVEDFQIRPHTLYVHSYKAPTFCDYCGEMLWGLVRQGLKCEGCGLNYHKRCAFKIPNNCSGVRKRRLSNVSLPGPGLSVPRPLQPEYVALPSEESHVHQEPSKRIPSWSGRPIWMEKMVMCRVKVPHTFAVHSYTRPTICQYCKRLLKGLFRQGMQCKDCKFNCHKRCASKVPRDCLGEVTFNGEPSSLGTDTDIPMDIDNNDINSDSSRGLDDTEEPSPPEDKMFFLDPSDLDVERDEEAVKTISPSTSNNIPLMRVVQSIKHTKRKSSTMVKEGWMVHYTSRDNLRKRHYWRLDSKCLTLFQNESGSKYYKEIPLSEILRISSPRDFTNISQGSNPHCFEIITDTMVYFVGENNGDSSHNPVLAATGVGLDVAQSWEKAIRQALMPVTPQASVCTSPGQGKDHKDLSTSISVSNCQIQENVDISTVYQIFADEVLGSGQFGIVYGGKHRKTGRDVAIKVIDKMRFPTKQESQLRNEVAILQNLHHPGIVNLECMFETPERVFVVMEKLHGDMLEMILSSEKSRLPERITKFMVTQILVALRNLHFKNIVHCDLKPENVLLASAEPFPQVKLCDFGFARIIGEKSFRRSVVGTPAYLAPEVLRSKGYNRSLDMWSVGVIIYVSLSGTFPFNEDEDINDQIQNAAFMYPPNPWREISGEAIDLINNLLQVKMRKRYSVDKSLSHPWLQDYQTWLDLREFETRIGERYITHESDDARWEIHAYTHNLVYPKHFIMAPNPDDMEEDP
UniProt O75884: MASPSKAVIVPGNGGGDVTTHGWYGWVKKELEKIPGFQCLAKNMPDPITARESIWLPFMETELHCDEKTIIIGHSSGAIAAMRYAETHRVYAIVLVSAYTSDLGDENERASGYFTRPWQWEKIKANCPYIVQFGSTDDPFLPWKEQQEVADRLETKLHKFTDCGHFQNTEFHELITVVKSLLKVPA
UniProt P06858: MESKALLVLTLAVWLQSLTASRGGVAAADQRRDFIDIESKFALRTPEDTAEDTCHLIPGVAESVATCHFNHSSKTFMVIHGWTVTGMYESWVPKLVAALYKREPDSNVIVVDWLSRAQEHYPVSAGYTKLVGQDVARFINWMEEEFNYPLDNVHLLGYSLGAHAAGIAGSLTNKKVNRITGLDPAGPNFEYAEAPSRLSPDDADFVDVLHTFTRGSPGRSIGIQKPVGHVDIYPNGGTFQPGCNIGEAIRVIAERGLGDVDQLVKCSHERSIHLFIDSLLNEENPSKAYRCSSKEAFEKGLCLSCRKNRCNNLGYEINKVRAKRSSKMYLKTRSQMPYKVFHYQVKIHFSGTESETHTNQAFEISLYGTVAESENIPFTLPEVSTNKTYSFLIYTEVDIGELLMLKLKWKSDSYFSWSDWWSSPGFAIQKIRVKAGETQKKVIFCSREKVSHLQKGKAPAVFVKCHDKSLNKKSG
UniProt O95299, whole entry: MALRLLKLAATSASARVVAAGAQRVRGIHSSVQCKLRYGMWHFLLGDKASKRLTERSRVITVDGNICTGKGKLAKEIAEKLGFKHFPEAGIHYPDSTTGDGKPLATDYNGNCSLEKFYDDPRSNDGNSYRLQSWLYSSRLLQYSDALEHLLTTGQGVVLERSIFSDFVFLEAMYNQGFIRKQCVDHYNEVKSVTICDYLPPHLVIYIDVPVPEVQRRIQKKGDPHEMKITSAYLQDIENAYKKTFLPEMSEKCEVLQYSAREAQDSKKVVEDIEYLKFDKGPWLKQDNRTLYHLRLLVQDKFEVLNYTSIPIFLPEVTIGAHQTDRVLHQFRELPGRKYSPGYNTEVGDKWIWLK
UniProt O76071: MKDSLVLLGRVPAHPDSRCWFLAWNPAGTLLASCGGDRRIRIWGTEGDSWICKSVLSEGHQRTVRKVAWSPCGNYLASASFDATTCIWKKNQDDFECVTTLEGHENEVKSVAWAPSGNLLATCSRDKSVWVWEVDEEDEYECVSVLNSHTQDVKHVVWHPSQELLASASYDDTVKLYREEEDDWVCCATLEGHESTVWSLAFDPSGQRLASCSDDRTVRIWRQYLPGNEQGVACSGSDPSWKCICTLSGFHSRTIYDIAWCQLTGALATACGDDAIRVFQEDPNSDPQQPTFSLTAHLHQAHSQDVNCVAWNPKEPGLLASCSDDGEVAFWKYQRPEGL
UniProt P04080: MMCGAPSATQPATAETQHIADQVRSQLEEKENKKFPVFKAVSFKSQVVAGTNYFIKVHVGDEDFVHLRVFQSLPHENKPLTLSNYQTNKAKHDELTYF
UniProt O94875: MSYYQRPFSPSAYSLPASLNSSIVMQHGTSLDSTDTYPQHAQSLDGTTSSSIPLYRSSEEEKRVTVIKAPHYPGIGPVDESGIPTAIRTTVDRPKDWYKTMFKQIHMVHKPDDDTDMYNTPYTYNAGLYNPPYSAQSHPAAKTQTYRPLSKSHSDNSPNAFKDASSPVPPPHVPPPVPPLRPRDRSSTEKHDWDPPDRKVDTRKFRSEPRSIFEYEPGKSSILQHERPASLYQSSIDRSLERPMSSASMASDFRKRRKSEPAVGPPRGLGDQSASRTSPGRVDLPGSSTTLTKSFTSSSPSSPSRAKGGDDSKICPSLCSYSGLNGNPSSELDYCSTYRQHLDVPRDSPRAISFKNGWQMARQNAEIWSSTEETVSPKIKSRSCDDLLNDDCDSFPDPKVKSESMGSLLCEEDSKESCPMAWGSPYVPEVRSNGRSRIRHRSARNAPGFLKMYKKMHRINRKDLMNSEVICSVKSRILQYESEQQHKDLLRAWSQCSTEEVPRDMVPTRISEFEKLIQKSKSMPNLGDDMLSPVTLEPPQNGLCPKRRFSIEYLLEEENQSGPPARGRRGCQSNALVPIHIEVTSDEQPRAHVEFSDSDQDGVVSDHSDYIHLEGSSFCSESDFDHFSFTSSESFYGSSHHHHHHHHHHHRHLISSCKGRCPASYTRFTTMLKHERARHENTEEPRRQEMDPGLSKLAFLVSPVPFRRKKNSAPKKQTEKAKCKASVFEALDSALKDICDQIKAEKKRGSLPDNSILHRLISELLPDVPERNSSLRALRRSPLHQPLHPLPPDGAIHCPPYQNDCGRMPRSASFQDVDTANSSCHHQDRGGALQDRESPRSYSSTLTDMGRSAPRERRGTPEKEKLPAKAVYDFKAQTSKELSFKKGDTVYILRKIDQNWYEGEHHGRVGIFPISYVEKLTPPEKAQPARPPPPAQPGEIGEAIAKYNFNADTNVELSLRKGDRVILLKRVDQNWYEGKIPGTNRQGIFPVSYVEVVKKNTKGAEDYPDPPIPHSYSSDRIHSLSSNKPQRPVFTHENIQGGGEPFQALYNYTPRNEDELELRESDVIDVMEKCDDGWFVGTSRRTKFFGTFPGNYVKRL
UniProt P06400: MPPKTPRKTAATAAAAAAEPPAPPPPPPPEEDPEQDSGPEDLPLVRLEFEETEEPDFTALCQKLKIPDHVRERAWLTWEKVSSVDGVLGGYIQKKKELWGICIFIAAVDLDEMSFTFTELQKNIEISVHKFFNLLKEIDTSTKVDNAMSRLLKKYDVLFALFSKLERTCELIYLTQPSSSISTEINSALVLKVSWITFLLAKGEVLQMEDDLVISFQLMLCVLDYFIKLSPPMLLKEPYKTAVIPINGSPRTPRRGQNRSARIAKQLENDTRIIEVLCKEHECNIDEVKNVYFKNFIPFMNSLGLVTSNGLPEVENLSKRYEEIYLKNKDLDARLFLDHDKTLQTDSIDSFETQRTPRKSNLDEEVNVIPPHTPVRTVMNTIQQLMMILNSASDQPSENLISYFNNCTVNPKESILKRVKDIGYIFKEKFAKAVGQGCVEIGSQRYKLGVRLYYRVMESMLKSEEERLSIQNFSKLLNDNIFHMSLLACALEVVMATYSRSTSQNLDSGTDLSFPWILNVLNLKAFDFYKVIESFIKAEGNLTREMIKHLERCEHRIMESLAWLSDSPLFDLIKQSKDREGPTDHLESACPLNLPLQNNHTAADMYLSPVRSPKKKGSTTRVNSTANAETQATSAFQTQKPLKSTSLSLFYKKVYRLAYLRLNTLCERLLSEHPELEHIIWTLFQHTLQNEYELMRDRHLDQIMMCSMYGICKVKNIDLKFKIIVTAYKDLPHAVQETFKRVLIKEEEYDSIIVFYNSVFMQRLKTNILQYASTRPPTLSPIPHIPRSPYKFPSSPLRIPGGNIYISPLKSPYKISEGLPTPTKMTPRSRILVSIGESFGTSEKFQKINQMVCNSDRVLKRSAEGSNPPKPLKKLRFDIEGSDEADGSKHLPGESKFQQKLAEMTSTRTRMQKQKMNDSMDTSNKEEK
UniProt O75940: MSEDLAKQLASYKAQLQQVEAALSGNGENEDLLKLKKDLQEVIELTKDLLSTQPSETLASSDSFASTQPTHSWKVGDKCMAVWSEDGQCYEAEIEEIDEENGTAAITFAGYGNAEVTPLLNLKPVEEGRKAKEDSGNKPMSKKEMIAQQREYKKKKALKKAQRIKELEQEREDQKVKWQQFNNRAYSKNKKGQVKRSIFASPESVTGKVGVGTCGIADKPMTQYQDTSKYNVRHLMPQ

Compound: CCc1cnccc1C(=O)Nc1cc2c(cc1F)NC(=O)CC2
Experiment: melting temperature shift (DMSO Tm minus MBE1-treated Tm) in cellular thermal proteome profiling; higher = less thermal stabilization by MBE1 (negative = stabilized by MBE1)
Conditions: A375

| Target | melting temperature shift (MBE1 concentration: 100 nM) | melting temperature shift (MBE1 concentration: 1 uM) |
| --- | --- | --- |
| GLS (UniProt O94925) | -0.805 °C | -1.05 °C |
| RECQL5 (UniProt O94762) | -0.352 °C | -0.429 °C |
| UBR5 (UniProt O95071) | -1.04 °C | -1.09 °C |
| RPLP0 (UniProt P05388) | -0.531 °C | 0.244 °C |
| GFPT2 (UniProt O94808) | -0.957 °C | 0.714 °C |
| SMC2 (UniProt O95347) | 0.247 °C | -0.134 °C |
| UniProt O95490 | 2.1 °C | 2.3 °C |
| FRYL (UniProt O94915) | -0.289 °C | 0.47 °C |
| NFAT5 (UniProt O94916) | -0.0794 °C | 0.293 °C |
| UniProt P06493 | 0.907 °C | 0.458 °C |
| APOB (UniProt P04114) | -2.63 °C | -2.8 °C |
| UniProt O95478 | -1.61 °C | -0.256 °C |
| SNAPIN (UniProt O95295) | -0.368 °C | -3.34 °C |
| WFS1 (UniProt O76024) | 0.543 °C | 0.867 °C |
| UniProt O94864 | -0.768 °C | -0.644 °C |
| UniProt O95167 | 0.177 °C | 0.379 °C |
| ATP5H (UniProt O75947) | -0.574 °C | -0.366 °C |
| LYPLA2 (UniProt O95372) | -0.409 °C | -0.487 °C |
| TYMS (UniProt P04818) | -0.579 °C | -0.704 °C |
| CAPNS1 (UniProt P04632) | -1.04 °C | -1.17 °C |

| Target | melting temperature shift (MBE1 concentration: 100 nM) | melting temperature shift (MBE1 concentration: 1 uM) |
| --- | --- | --- |
| UniProt O94832 | 0.488 °C | -0.843 °C |
| SNUPN (UniProt O95149) | 0.299 °C | 0.434 °C |
| NPM1 (UniProt P06748) | -0.41 °C | -1.97 °C |
| SNAP29 (UniProt O95721) | -8.97 °C | -3.35 °C |
| PRKD3 (UniProt O94806) | 1.2 °C | 0.794 °C |
| ZBED1 (UniProt O96006) | -1.29 °C | -0.395 °C |
| RBBP9 (UniProt O75884) | 2.64 °C | -0.0134 °C |
| UniProt O96017 | -0.452 °C | -0.775 °C |
| UniProt P06858 | -0.476 °C | 1.3 °C |
| BCL10 (UniProt O95999) | -0.721 °C | -0.69 °C |
| TNFAIP8 (UniProt O95379) | 0.0611 °C | 0.873 °C |
| DGAT1 (UniProt O75907) | -1.33 °C | 0.928 °C |
| STBD1 (UniProt O95210) | -0.586 °C | -0.403 °C |
| UniProt O75923 | -1.92 °C | 0.649 °C |
| CYB5R3 (UniProt P00387) | -1.04 °C | -0.25 °C |
| DHRS3 (UniProt O75911) | -0.177 °C | 1.21 °C |
| EIF2S1 (UniProt P05198) | -0.416 °C | 0.557 °C |
| CD2BP2 (UniProt O95400) | -0.122 °C | -0.41 °C |
| NDUFA10 (UniProt O95299) | 0.605 °C | -0.0611 °C |
| GGPS1 (UniProt O95749) | -0.443 °C | -0.148 °C |

| Target | melting temperature shift (MBE1 concentration: 100 nM) | melting temperature shift (MBE1 concentration: 1 uM) |
| --- | --- | --- |
| PYGL (UniProt P06737) | -0.617 °C | -0.181 °C |
| CIAO1 (UniProt O76071) | 2.59 °C | -1.3 °C |
| ADA (UniProt P00813) | -2.23 °C | -1.17 °C |
| BCAS2 (UniProt O75934) | -0.847 °C | -0.805 °C |
| UniProt O95785 | -0.379 °C | 0.0939 °C |
| SOD1 (UniProt P00441) | -8.46 °C | -1.35 °C |
| CSTB (UniProt P04080) | -0.0469 °C | -0.335 °C |
| MTA2 (UniProt O94776) | -0.658 °C | -0.08 °C |
| TOP3B (UniProt O95985) | 0.226 °C | -0.421 °C |
| ZBTB7A (UniProt O95365) | 0.208 °C | 2.69 °C |
| UniProt O94875 | 0.354 °C | 1.02 °C |
| RB1 (UniProt P06400) | -0.812 °C | -0.0134 °C |
| CLPTM1 (UniProt O96005) | -0.952 °C | 0.255 °C |
| SMNDC1 (UniProt O75940) | -4.15 °C | -2.44 °C |
| PGM3 (UniProt O95394) | 0.908 °C | 0.891 °C |
| UniProt O96028 | 0.0384 °C | 0.0192 °C |
| UniProt O96007 | -6.46 °C | 0.976 °C |
| RAB3D (UniProt O95716) | -0.593 °C | 0.507 °C |
| ABHD16A (UniProt O95870) | -3.96 °C | -2.23 °C |
| PAK4 (UniProt O96013) | 0.0366 °C | 0.0977 °C |
